{"sequences": {"note": "Chains of the proteins cited; added tags and fusions are not shown. Lines headed by an entry give the natural chain unless they say otherwise; changes in a name come on top.", "UniProt Q96FF9": "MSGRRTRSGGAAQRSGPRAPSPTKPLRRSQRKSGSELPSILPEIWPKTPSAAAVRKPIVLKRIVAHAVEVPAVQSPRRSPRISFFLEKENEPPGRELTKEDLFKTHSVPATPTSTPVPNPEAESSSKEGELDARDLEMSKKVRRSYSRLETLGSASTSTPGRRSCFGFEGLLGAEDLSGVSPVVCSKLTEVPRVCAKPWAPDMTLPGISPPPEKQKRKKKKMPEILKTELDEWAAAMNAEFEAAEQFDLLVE", "UniProt P11802": "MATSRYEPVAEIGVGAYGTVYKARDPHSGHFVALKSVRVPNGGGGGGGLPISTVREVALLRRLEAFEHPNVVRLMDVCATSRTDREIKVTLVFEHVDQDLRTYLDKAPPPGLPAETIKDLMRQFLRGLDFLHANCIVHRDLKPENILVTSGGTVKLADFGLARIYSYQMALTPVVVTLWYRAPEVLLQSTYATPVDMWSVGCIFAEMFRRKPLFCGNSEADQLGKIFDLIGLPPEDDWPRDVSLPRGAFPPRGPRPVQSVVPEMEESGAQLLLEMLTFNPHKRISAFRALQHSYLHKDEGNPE", "UniProt Q02224": "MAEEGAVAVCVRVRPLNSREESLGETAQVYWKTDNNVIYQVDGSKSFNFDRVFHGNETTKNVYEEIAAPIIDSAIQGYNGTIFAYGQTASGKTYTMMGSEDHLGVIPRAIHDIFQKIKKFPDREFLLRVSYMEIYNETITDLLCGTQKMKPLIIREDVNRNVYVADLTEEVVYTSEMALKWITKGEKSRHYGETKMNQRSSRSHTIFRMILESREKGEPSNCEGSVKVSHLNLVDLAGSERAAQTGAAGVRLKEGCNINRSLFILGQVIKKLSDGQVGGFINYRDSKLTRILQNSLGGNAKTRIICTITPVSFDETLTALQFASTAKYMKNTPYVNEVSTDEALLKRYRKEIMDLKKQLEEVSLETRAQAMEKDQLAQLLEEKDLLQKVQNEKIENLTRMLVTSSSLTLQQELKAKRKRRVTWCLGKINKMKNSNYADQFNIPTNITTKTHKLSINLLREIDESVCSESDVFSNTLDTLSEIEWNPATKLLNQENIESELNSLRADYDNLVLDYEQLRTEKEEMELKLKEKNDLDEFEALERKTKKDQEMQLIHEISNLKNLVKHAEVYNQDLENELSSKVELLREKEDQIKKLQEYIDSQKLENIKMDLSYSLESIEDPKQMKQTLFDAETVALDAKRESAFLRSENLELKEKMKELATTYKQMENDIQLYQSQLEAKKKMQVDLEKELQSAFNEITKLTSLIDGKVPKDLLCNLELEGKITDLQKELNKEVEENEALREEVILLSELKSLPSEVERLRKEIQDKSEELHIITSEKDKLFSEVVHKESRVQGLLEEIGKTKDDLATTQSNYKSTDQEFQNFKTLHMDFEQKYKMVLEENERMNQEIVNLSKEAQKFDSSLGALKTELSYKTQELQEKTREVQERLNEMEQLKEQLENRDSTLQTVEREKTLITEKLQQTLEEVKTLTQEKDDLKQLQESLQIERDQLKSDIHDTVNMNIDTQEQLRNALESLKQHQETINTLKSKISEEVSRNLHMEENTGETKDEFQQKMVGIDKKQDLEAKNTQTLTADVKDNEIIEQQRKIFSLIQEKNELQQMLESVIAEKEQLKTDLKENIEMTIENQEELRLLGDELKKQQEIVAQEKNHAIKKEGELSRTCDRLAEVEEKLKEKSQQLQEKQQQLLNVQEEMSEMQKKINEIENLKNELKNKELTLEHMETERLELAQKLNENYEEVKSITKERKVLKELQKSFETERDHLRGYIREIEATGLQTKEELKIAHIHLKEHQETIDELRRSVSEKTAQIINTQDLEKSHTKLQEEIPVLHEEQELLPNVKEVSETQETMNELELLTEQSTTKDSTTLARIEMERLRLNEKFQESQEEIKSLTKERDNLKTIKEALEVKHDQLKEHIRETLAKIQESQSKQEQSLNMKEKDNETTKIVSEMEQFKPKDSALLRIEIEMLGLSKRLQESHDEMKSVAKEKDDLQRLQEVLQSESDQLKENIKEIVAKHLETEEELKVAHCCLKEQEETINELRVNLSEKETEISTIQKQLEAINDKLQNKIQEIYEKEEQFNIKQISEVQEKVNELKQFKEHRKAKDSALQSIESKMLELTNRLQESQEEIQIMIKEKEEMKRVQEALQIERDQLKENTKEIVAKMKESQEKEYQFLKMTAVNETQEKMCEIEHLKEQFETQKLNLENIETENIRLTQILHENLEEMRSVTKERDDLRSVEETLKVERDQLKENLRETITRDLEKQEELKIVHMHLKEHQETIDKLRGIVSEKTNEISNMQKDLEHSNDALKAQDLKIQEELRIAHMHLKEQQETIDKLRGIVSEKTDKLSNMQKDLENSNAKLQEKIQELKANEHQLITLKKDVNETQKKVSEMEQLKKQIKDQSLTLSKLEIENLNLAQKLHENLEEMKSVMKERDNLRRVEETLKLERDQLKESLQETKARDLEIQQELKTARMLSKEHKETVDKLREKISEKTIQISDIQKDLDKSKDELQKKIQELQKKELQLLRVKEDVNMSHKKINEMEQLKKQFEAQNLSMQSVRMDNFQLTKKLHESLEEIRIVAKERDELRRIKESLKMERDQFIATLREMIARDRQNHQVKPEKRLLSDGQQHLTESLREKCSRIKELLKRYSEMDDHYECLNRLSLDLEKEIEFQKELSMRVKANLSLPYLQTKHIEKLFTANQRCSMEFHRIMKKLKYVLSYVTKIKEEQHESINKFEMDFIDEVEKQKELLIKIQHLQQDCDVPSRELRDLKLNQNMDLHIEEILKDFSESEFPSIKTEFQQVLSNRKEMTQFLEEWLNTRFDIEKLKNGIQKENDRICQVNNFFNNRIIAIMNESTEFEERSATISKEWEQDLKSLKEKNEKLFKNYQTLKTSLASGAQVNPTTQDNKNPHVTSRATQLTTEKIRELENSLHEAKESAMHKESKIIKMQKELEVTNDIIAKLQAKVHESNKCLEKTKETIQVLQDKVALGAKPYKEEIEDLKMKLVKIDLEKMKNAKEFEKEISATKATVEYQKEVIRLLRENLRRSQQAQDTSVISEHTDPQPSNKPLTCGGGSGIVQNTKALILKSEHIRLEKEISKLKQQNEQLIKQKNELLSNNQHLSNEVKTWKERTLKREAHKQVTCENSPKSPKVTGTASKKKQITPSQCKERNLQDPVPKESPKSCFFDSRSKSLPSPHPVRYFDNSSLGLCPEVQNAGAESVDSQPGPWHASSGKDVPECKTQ", "UniProt Q8TAP6": "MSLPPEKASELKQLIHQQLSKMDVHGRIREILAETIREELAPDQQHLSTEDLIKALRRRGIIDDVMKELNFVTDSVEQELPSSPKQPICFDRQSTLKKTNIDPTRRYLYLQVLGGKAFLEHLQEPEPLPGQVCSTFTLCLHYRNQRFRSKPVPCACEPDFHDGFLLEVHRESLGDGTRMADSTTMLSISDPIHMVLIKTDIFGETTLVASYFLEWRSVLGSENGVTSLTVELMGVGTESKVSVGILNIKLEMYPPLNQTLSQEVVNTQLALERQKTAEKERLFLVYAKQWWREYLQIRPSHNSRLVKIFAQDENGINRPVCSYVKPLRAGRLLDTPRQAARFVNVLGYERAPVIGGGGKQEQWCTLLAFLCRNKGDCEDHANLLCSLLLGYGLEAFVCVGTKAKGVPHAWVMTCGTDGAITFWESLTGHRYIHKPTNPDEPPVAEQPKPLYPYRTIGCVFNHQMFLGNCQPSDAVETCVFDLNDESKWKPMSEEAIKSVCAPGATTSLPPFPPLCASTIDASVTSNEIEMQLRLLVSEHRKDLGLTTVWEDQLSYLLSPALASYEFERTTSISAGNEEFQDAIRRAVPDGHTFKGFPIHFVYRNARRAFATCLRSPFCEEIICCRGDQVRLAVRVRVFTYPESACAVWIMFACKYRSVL", "UniProt Q92989": "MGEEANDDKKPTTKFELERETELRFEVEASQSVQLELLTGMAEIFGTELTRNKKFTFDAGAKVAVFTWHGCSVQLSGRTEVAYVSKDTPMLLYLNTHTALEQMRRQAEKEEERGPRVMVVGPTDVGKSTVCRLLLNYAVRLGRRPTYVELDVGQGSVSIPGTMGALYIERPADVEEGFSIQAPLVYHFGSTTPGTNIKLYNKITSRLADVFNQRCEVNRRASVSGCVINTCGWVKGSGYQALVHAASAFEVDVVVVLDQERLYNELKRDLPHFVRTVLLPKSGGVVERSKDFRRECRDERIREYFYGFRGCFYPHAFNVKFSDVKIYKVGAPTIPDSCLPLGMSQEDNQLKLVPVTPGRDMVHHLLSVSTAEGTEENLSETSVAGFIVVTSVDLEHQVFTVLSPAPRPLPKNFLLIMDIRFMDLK", "UniProt Q99832": "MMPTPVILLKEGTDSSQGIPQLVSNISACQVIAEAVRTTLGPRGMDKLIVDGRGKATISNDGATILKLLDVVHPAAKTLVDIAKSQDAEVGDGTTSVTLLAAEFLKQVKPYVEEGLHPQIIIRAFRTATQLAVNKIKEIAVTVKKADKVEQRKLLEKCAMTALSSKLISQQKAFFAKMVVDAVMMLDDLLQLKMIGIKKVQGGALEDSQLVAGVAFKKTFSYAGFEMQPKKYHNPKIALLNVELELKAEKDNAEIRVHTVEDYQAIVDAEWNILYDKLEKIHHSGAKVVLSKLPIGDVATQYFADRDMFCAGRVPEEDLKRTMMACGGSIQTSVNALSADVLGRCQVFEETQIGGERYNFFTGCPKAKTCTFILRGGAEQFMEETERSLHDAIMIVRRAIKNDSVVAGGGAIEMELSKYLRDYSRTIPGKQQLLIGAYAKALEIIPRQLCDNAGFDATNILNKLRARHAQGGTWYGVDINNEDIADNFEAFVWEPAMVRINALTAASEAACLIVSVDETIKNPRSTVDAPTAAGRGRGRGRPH", "UniProt Q9NX76": "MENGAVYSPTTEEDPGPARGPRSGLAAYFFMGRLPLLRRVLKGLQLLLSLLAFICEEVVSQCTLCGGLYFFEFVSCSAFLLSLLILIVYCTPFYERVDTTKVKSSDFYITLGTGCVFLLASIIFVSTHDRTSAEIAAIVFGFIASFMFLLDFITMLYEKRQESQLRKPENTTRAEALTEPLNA", "UniProt O75175, whole entry": "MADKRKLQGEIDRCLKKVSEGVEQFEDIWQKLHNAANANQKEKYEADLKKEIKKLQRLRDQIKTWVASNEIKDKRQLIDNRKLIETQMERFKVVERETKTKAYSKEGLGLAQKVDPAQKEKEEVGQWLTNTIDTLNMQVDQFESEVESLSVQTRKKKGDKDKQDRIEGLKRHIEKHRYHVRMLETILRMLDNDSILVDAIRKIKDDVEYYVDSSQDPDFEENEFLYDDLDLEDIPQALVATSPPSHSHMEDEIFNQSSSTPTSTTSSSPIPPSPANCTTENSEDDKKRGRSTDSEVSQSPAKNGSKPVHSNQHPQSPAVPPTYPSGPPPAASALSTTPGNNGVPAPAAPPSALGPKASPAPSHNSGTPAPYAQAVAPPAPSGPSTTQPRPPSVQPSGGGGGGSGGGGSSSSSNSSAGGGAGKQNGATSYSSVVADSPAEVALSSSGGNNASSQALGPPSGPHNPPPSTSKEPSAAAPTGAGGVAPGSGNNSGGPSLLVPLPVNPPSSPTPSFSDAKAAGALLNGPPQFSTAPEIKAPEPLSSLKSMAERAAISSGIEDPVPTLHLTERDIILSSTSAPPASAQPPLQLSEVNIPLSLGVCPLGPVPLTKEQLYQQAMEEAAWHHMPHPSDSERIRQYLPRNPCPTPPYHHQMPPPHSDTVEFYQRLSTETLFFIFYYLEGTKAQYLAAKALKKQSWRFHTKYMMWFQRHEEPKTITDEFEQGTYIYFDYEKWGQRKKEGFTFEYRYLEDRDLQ", "UniProt P09543": "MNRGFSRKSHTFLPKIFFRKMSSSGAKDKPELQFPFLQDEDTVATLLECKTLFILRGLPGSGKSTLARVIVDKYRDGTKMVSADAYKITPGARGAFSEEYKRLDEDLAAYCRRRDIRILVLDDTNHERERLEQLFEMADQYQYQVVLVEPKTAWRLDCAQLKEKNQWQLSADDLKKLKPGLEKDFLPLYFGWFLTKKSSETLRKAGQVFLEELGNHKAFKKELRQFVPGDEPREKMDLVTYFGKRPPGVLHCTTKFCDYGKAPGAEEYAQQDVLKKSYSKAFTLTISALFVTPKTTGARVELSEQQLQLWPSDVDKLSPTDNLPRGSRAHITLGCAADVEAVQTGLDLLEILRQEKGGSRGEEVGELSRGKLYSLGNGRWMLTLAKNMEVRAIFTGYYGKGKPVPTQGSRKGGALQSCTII", "UniProt Q7Z7K6": "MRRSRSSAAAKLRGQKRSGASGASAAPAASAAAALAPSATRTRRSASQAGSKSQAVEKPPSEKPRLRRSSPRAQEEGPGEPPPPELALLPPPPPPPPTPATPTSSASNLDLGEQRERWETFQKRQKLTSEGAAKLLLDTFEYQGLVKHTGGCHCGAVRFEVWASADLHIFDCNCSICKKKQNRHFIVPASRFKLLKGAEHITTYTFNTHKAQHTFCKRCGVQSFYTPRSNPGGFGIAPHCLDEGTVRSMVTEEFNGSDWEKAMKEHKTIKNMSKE"}, "source": "the supplement of paper PMC7666118", "note": "The list shows a part of the results."}
{"compound": "COc1ccc(Cn2ccc3ccc(C(=O)NO)cc32)cc1", "experiment": "dose-dependent thermal stabilisation call (2D-TPP, DLPTP, 10% FDR) (binary (1 = stabilised)); higher = stabilised by the compound", "details": "system: HL-60 intact cells; concentration range 0.04-10 µM"}
{"target": "CDC45L (UniProt O75419)", "dose-dependent thermal stabilisation call": "inactive: 0"}
{"target": "CDCA5 (UniProt Q96FF9)", "dose-dependent thermal stabilisation call": "inactive: 0"}
{"target": "CHERP (UniProt Q8IWX8)", "dose-dependent thermal stabilisation call": "inactive: 0"}
{"target": "COBRA1 (UniProt Q8WX92)", "dose-dependent thermal stabilisation call": "inactive: 0"}
{"target": "CHD1L (UniProt Q86WJ1)", "dose-dependent thermal stabilisation call": "inactive: 0"}
{"target": "CDKAL1 (UniProt Q5VV42)", "dose-dependent thermal stabilisation call": "inactive: 0"}
{"target": "CHST12 (UniProt Q9NRB3)", "dose-dependent thermal stabilisation call": "inactive: 0"}
{"target": "CDK4 (UniProt P11802)", "dose-dependent thermal stabilisation call": "inactive: 0"}
{"target": "CCDC12 (UniProt Q8WUD4)", "dose-dependent thermal stabilisation call": "inactive: 0"}
{"target": "CENPE (UniProt Q02224)", "dose-dependent thermal stabilisation call": "inactive: 0"}
{"target": "CCDC104 (UniProt Q96G28)", "dose-dependent thermal stabilisation call": "inactive: 0"}
{"target": "CEP76 (UniProt Q8TAP6)", "dose-dependent thermal stabilisation call": "inactive: 0"}
{"target": "CHMP4A (UniProt Q9BY43)", "dose-dependent thermal stabilisation call": "inactive: 0"}
{"target": "CLP1 (UniProt Q92989)", "dose-dependent thermal stabilisation call": "inactive: 0"}
{"target": "CEP110", "dose-dependent thermal stabilisation call": "inactive: 0"}
{"target": "CMAS (UniProt Q8NFW8)", "dose-dependent thermal stabilisation call": "inactive: 0"}
{"target": "CHEK1 (UniProt O14757)", "dose-dependent thermal stabilisation call": "inactive: 0"}
{"target": "CISD1 (UniProt Q9NZ45)", "dose-dependent thermal stabilisation call": "inactive: 0"}
{"target": "CCDC44 (UniProt Q9BSH4)", "dose-dependent thermal stabilisation call": "inactive: 0"}
{"target": "CCDC47 (UniProt Q96A33)", "dose-dependent thermal stabilisation call": "inactive: 0"}
{"target": "COIL (UniProt P38432)", "dose-dependent thermal stabilisation call": "inactive: 0"}
{"target": "CFL1 (UniProt P23528)", "dose-dependent thermal stabilisation call": "inactive: 0"}
{"target": "CDC25C (UniProt P30307)", "dose-dependent thermal stabilisation call": "inactive: 0"}
{"target": "CLGN (UniProt O14967)", "dose-dependent thermal stabilisation call": "inactive: 0"}
{"target": "CCT7 (UniProt Q99832)", "dose-dependent thermal stabilisation call": "inactive: 0"}
{"target": "CNPY3 (UniProt Q9BT09)", "dose-dependent thermal stabilisation call": "inactive: 0"}
{"target": "CMTM6 (UniProt Q9NX76)", "dose-dependent thermal stabilisation call": "inactive: 0"}
{"target": "CHMP5 (UniProt Q9NZZ3)", "dose-dependent thermal stabilisation call": "inactive: 0"}
{"target": "CCS (UniProt O14618)", "dose-dependent thermal stabilisation call": "inactive: 0"}
{"target": "CNOT3 (UniProt O75175)", "dose-dependent thermal stabilisation call": "inactive: 0"}
{"target": "CNP (UniProt P09543)", "dose-dependent thermal stabilisation call": "inactive: 0"}
{"target": "CEP78 (UniProt Q5JTW2)", "dose-dependent thermal stabilisation call": "inactive: 0"}
{"target": "CNNM4 (UniProt Q6P4Q7)", "dose-dependent thermal stabilisation call": "inactive: 0"}
{"target": "CNN2 (UniProt Q99439)", "dose-dependent thermal stabilisation call": "inactive: 0"}
{"target": "CLCN7 (UniProt P51798)", "dose-dependent thermal stabilisation call": "inactive: 0"}
{"target": "CLEC16A (UniProt Q2KHT3)", "dose-dependent thermal stabilisation call": "inactive: 0"}
{"target": "CCDC9 (UniProt Q9Y3X0)", "dose-dependent thermal stabilisation call": "inactive: 0"}
{"target": "CENPV (UniProt Q7Z7K6)", "dose-dependent thermal stabilisation call": "inactive: 0"}
